Experimental data: PubChem BioAssay AID602196 (INSERM, 2012)
Aim: 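Knock-downs that protect lung cancer cells from cisplatin or sensitise them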. System: human A549 lung cancer cells. Knock-down reagent: siRNA pair against human genes. Duration: 48 h transfection before cisplatin; time from cisplatin to read-out not stated. Challenge: cisplatin at a dose killing half of control-siRNA cells; exact dose and duration not given. Detection: 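Cisplatin cell death as a shift from the 50% death seen with control siRNA; siRNAs toxic or growth-blocking alone scored 0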. Scale: two-siRNA summed score (-2 to +2): higher = both siRNAs protect from cisplatin killing; -2 means both sensitise; mean protection from cisplatin (shift in death) and protection from cisplatin (shift in death), siRNA C and protection from cisplatin (shift in death), siRNA D: higher = protection from cisplatin killing. Rule for the call: 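siRNAs harmful alone (LDH or WST-1) get 0; others get +1 for less and -1 for more cisplatin killing; genes are active when the two siRNAs give the same sign, summing to ±2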. Calls: active = both siRNAs shift cisplatin killing the same way; inactive = no consistent shift, or siRNA harmful alone.
This is an unselected part of about 23,000 reagents. 455 of them (2%) were called active. 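Active includes both protection and sensitisation; some change values fall well beyond the stated -50 to +50 range.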 A number with no mark means an inactive call. Not given: the amount of reagent.

no.	Target gene	two-siRNA summed score (-2 to +2)	mean protection from cisplatin (shift in death) (%)	protection from cisplatin (shift in death), siRNA C (%)	protection from cisplatin (shift in death), siRNA D (%)
1	TRIM11 (GeneID 81559)	1	18.3	9.5	27.1
2	NIPSNAP1 (GeneID 8508)	-1	-6.4	6.8	-19.7
3	LOC151579	0	9.4	9.3	9.5
4	FSIP1 (GeneID 161835)	0	9.7	3.2	16.3
5	RPH3AL (GeneID 9501)	0	19.5	47.5	-8.5
6	OR5D13 (GeneID 390142)	0	7.3	13.8	0.7
7	CDH18 (GeneID 1016)	-1	-10.4	0.7	-21.6
8	OGFOD2 (GeneID 79676)	0	-6.2	-12.6	0.2
9	GET4 (GeneID 51608)	0	1.8	5.5	-1.9
10	GAPDHP74 (GeneID 391073)	1	9.7	8	11.3
11	MORC4 (GeneID 79710)	0	13.9	14	13.9
12	FRAS1 (GeneID 80144)	0	0.7	-3.5	5
13	PDP1 (GeneID 54704)	1	14.2	6	22.5
14	CUL5 (GeneID 8065)	-1	-13.6	-16	-11.3
15	CACNA1D (GeneID 776)	0	5.1	9	1.2
16	MYADML (GeneID 151325)	0	-16.3	-12.2	-20.3
17	DIPK1C (GeneID 125704)	-1	-2.8	12.4	-18.1
18	CSN3 (GeneID 1448)	-1	-8.8	-6.6	-11.1
19	VTN (GeneID 7448)	0	-12.2	-18.8	-5.6
20	CLK3 (GeneID 1198)	1	9.8	21	-1.5
21	STXBP1 (GeneID 6812)	1	11.6	10.3	13
22	LOC442121	0	4.5	9.3	-0.4
23	KAAG1 (GeneID 353219)	-1	-1.1	8.4	-10.6
24	PAQR4 (GeneID 124222)	0	13.1	6.8	19.5
25	SP7 (GeneID 121340)	0	10.6	-6.2	27.4
26	PSMA3 (GeneID 5684)	0	7.3	5.7	8.9
27	OR10A4 (GeneID 283297)	1	20.9	18.6	23.2
28	HGS (GeneID 9146)	-1	-13.7	-14.6	-12.8
29	CCT5 (GeneID 22948)	0	-26.5	-9.3	-43.7
30	LOC389953	1	7.2	-2.9	17.2
31	PARP10 (GeneID 84875)	0	-1.5	-8.2	5.1
32	LOC441164	0	4.7	-2.4	11.9
33	LOC440933	1	13.1	14.5	11.7
34	ANXA10 (GeneID 11199)	1	12.8	13.2	12.4
35	ST6GALNAC5 (GeneID 81849)	0	-4.3	-7.8	-0.8
36	PHF2 (GeneID 5253)	0	-6.1	13.4	-25.7
37	COA7 (GeneID 65260)	0	-1.3	-6	3.3
38	LOC440231	0	3.2	5.9	0.5
39	ZC3H14 (GeneID 79882)	0	10.4	7.1	13.7
